## Binding screen against folded nucleic acids

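The test is a small-molecule microarray: each compound is printed twice on a reactive slide, and binding shows as fluorescence of the labelled oligonucleotide after washing. For the PreQ1, TPP and SAM-II riboswitches the laboratory earlier reported (doi:10.1038/s41467-019-09493-3) 1 µM RNA, 2 h, and a rule that included a mean Z-score above 3 (spot signal-to-noise against the whole library), a score well above that on a control array, and duplicate spots agreeing (coefficient of variation under 100). The data file gives only the calls; its cut-offs may differ, and compounds hitting several targets are kept. A missing hit is not proof of no binding, and a hit is not a measured affinity.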 A compound is marked hit if it was called a hit and no hit if it was screened but was not. Compounds were drawn at random from those tested, without regard to their results. A target missing from an entry has no call listed here. A dash means that no call is listed here.

Oligonucleotides screened, 5′ to 3′:
T1: SAM-II riboswitch RNA pseudoknot, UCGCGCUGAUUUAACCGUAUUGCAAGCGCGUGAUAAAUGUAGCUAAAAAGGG. About 21,000 compounds screened, about 200 hits.
T2: TPP riboswitch RNA three-way junction, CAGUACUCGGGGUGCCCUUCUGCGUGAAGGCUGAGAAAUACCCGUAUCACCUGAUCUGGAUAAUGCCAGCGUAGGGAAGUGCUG. About 24,000 compounds screened, about 160 hits.
T3: PreQ1 riboswitch RNA pseudoknot, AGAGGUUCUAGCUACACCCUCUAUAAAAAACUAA. From B. subtilis. About 24,000 compounds screened, about 170 hits.

* OCCNc1nc(NCc2ccccc2Cl)nc2ccccc12 : T1: no hit; T2: no hit; T3: no hit
* Cc1nc(N2CCOCC2)ncc1-c1ccnc(NCc2ccco2)n1 : T2: no hit; T3: no hit
* N#Cc1c(-c2ccc(C#CCCO)cc2)cc(-c2ccccn2)nc1N : T1: no hit; T2: no hit; T3: no hit
* CCCCCN(CCC12CC3CC(CC(C3)C1)C2)C(=O)NCCCc1ccncc1 : T1: no hit; T2: no hit; T3: no hit
* NCCn1cc(C(=O)NC2CCCN(Cc3cccc(O)c3)C2)nn1 (stereo not drawn) : T1: no hit; T2: no hit; T3: no hit
* Nc1ccc(N2C(=O)C3C4CCC(C4)C3C2=O)cc1 (stereo not drawn) : T1: no hit; T2: no hit; T3: no hit
* COc1ccc(NS(=O)(=O)c2cc(Br)cnc2N)cc1 : T2: no hit; T3: no hit
* Nc1nnc(SCC(=O)Nc2cccc(F)c2)s1 : T1: no hit; T2: no hit; T3: no hit
* CCCc1nc(-c2cc3ccc(C)cc3nc2NCc2cccc(OC)c2)no1 : T2: no hit; T3: no hit
* CC1(C)Cc2c(C#N)c(NC3CCCCC3)nc(-c3ccco3)c2CO1 : T1: no hit; T2: no hit; T3: no hit
* O=C1CCC2(CCN(C(=O)c3ccc4cc[nH]c4c3)CC2)CN1CCO : T1: no hit; T2: no hit; T3: no hit
* Cc1cc(NC(C)c2nnc(N)s2)n2nccc2n1 (stereo not drawn) : T1: no hit; T2: no hit; T3: no hit
* O=C(NCCc1csc(-c2ncccn2)n1)c1cn2c(n1)CNCC2 : T1: no hit; T2: no hit; T3: no hit
* O=c1n(Cc2ncccn2)nc(C2CCCNC2)n1-c1ccccc1 (stereo not drawn) : T1: no hit; T2: no hit; T3: no hit
* CCCc1cc(Nc2cccc(C(=O)N3CCCCC3)c2)n2nc(-c3cccnc3)nc2n1 : T2: no hit; T3: no hit
* CC(C)(C)NC(=O)[C@@H]1CN(Cc2cccnc2)CCN1C[C@@H](O)C[C@@H](Cc1ccccc1)C(=O)N[C@H]1c2ccccc2C[C@H]1O : T1: no hit; T2: no hit; T3: no hit
* CC(=O)CNC(C)(C)C : T1: no hit; T2: no hit; T3: no hit
* CCN(CC=Cc1ccccc1)C(=O)CC1CNCCO1 (stereo not drawn) : T1: no hit; T2: no hit; T3: no hit
* COc1ccc([C@@H]2C[C@H](c3ccc(OCc4ccccc4)cc3)n3nc(N)nc3N2)cc1 : T1: no hit; T2: no hit; T3: no hit
* COc1cc(CNCCc2c[nH]c3ccccc23)ccc1OCc1ccc2c(c1)n(C)c(=O)n2C : T2: no hit; T3: no hit
* COC1CC(C)C(OC)c2cc(O)cc(c2O)NC(=O)/C(C)=C/C=C\C(C)C(OC(N)=O)/C(C)=C\C(C)C1OC (stereo not drawn) : T1: no hit; T2: no hit; T3: no hit
* CCOc1cc(CNCCc2cccc(F)c2)ccc1OC : T1: no hit; T2: no hit; T3: no hit
* CC(C)c1nc(CN(C)C(=O)N[C@H](C(=O)N[C@@H](Cc2ccccc2)C[C@H](O)[C@H](Cc2ccccc2)NC(=O)OCc2cncs2)C(C)C)cs1 : T1: no hit; T2: no hit; T3: no hit
* COCc1cc(C)c2c(N)c(C(=O)c3ccccc3)sc2n1 : T1: no hit; T2: no hit; T3: no hit
* Cc1ccc2c(c1)C1CN(C)CCC1N2C(=O)c1sc2nc(C)cc(C)c2c1N (stereo not drawn) : T1: no hit; T2: no hit; T3: no hit
* CCOC(=O)N1CCN(CC2(c3ccc(C)cn3)CCNCC2)CC1 : T1: no hit; T2: no hit; T3: no hit
* Cc1ccc(-n2nc(CO)c(C(=O)NCCC(C)C)n2)cc1C : T2: no hit; T3: no hit
* Cn1c(Cn2cccn2)nnc1C1CCCN(c2nc(CO)cs2)C1 (stereo not drawn) : T1: no hit; T2: no hit; T3: no hit
* CN(C)[C@@H]1C[C@@H](CO)N(S(=O)(=O)c2ccc(F)cc2Cl)C1 : T1: no hit; T2: no hit; T3: no hit
* OC(CNCc1ccco1)Cn1c2ccc(Br)cc2c2cc(Br)ccc21 (stereo not drawn) : T1: hit; T2: no hit; T3: no hit
* O=S1(=O)C[C@H](NCc2ccco2)[C@@H](S(=O)(=O)c2ccc(F)cc2)C1 : T2: no hit; T3: no hit
* CCN1CCN(Cc2ccc(-c3cc4c(N[C@H](C)c5ccccc5)ncnc4[nH]3)cc2)CC1 : T1: no hit; T2: no hit; T3: no hit
* CC(=O)NC[C@H]1CN(c2ccc(N3CCOCC3)c(F)c2)C(=O)O1 : T1: no hit; T2: no hit; T3: no hit
* Cl.Nc1cccc(S(=O)(=O)CCO)c1 : T1: no hit; T2: no hit; T3: no hit
* CC(C)c1ccc(Nc2c(-c3ccccc3O)nc3cnccn23)cc1 : T1: no hit; T2: no hit; T3: hit
* Cc1ccc(S(=O)(=O)N(CCO)c2ccccc2)cc1 : T1: no hit; T2: no hit; T3: no hit
* CCC1CN(Cc2cccc(CCN)c2)CCN1C(C)C (stereo not drawn) : T1: no hit; T2: no hit; T3: no hit

For reference, 5 entries once more:

| compound | T1 | T2 | T3 |
|---|---|---|---|
| `N#Cc1c(-c2ccc(C#CCCO)cc2)cc(-c2ccccn2)nc1N` | no hit | no hit | no hit |
| `Cc1nc(N2CCOCC2)ncc1-c1ccnc(NCc2ccco2)n1` | - | no hit | no hit |
| `COc1ccc([C@@H]2C[C@H](c3ccc(OCc4ccccc4)cc3)n3nc(N)nc3N2)cc1` | no hit | no hit | no hit |
| `COC1CC(C)C(OC)c2cc(O)cc(c2O)NC(=O)/C(C)=C/C=C\C(C)C(OC(N)=O)/C(C)=C\C(C)C1OC` (stereo not drawn) | no hit | no hit | no hit |
| `Nc1nnc(SCC(=O)Nc2cccc(F)c2)s1` | no hit | no hit | no hit |

Data from the ROBIN nucleic acid binder screens, doi:10.1002/anie.202211358.